Sequences and labels used below:
B1: JTX-8064 (antibody, V domains shown)
VH: QITLKESGPTLVKPTQTLTLTCTFSGFSLNTYAMGVSWIRQPPGKALEWLASIWWNGNKYNNPSLKSRLTVTKDTSKNQVVLTMTNMDPVDTATYYCAHSRIIRFTDYVMDAWGQGTLVTVSS
VL: DIQMTQSPSSLSTSVGDRVTITCRASEDIYNDLAWYQQKPGKAPKLLIYNANSLHTGVASRFSGSGSGTDFTFTISSLQPEDVATYFCQQYYDYPLTFGQGTKLEIK
B2: B9 (VHH)
VHH: QVQLQESGGGSVQAGGSLRLSCAASGYTDSRYCMGWFRQVPGKEREKVATIYNGDGNTYYDDSVKGRFTISQGNAKNTLFLEMNNLKPEDTAMYYCAAIKAYGSNWCPAVEYSDWGQGTQVTVSS
B3: C7 (VHH)
VHH: QVQLQESGGGLVQAGGSLRLSCAASEYTDSRYCMAWFRQVPGKEREKVAIIYNGDGNTYYDDSVKGRFTISQSVAKNTLYLQMNNLKPEDTGMYYCAAIKAYGSNWCRAVEYSDWGQGTQVTVSS
B4: A7 (VHH)
VHH: QVQLQESGGGSVQPGGRLRLSCETSGYTSSRNWMGWFRQAPGKEREGVASIYTDNGSAYYADSVKGRFTISVDNAKNTVYLQMNSLKPEDTAMYYCAGRIRPPAGTRWPGPLVESAYNTWGRGTQVTVSS
B5: A3 (VHH)
VHH: QVQLQESGGGLVQAGGSLTLSCAVSGISFGTRAMAWFRQAPGKEREGVASIQADTYISYADSVKGRFTISKDSGKNTLNLQMNNLKPEDTAVYYCAVGDLWGSHLQPHGYNYWGQGTQVTVSS
B6: G3 (VHH)
VHH: QVQLQESGGGSVQAGGSLRLSCAASGYPRSSVCMGWYRQAPGKEREGVAAIFTGGGRPYYADSVKGRFTISQDNAVNTVSLQMNNLKPEDTAMYYCAAELTYCSGGPWTDPVGYWGQGTQVTVSS
B7: E5 (VHH)
VHH: QVQLQESGGGSVQAGGSLRLSCVASGYPRSSVCMGWYRQAPGKEREGVAAIFTGGGTPYYGDSVKGRFTISQDNAVNTVSLQMNDLKPEDTAMYYCAVELTYCSGGPWTDPVGYWGQGTQVTVSS

Sequences of proteins named here, by UniProt entry; tags and fusion partners are left off. A change or cut given only in a name is not applied to a line headed by its entry.
UniProt Q8N423: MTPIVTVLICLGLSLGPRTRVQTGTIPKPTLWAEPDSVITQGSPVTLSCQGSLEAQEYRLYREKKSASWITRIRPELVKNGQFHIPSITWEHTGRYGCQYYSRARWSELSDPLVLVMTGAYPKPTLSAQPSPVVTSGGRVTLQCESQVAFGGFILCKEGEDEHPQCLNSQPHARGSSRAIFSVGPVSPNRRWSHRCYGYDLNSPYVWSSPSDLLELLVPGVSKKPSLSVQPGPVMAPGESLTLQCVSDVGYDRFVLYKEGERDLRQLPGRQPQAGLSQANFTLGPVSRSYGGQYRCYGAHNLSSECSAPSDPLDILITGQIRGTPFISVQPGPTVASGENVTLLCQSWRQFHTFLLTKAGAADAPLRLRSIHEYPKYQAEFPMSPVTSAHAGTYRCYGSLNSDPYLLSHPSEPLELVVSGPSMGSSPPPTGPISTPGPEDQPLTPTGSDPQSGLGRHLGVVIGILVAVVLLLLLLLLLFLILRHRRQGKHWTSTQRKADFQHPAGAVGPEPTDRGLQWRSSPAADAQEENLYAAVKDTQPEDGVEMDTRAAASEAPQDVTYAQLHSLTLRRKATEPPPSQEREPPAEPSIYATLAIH

These are yes or no findings as the source states them, for the method shown. Some results given as binding are weak or reduced against the parent protein; the word gives no strength.

For one test, the target named is 人LILRB2重组蛋白(KN表达) (human) (UniProt Q8N423). The experiment in a line: ELISA, coated human LILRB2, antibody at 10 ug/ml. (An ELISA detects its analyte on a solid surface through an enzyme-linked reagent.)
Regarding B1, the binding result is listed as “binds”.

For the next test, the target named is Biotinylated-LILRB2(Acro,Cat.LI2-H82F5) (human) (UniProt Q8N423). Nature of the test: phage display, liquid-phase panning and identification.
B2: the binding result is reported as “binds”.
The same measure, in the same setting: next, B3: “binds”; B4: “binds”.
The same measure, in the same setting: next, B5: “binds”.
On the same count and under the same terms, in the case of B6 it was “binds”.
For B7, the binding entry is given as “binds”.

The values above are taken from CN114805568A.
